Test results: publication PMC12742733
These are yes or no findings as the source states them, for the method shown. Binding seen in cells or lysates may run through a third protein. Some binding calls cover weakened binding; strength is not graded here. Sequences can lack the tags named with a protein.

Amino acid sequences for entries named in this document (tags omitted). Residues count along the entry.
UniProt Q16620, residues 32-822: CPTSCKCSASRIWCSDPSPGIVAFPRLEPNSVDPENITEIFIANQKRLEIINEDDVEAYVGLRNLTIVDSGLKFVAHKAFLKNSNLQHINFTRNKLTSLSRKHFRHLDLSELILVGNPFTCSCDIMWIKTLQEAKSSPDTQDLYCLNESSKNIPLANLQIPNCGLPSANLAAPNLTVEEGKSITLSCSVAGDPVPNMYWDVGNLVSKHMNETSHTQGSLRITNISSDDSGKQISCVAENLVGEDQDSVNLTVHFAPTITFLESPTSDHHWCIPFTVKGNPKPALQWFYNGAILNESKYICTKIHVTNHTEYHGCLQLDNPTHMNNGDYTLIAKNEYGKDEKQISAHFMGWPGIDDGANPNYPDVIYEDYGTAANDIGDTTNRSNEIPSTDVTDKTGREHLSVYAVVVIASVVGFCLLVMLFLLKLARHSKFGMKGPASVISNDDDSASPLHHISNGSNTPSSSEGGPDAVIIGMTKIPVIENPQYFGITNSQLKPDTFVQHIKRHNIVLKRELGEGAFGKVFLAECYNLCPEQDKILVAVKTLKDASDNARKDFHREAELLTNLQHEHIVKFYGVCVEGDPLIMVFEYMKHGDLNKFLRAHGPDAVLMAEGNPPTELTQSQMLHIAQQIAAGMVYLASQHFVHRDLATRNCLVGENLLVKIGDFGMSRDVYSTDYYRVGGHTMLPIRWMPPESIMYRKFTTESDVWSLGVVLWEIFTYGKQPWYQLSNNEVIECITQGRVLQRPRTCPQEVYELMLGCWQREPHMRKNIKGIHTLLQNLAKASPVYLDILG

Target: TrkB (pCMV-SPORT6-TrkB), untagged (UniProt Q16620)
Assay: co-IP; HEK293T cells transfected with pCMV-SPORT6-TrkB and pDisplay-SLITRK2 plasmids; lysis in 20 mM Tris pH 7.4, 1.0% Triton X-100, 0.1% SDS, 150 mM NaCl, 10% glycerol; antibody overnight at 4 °C, protein A-Sepharose; immunoblot

Binder	binding
HA-tagged SLITRK2 WT (pDisplay-SLITRK2 WT) (receptor, UniProt Q9H156 22-845) RKTAKDICKIRCLCEEKENVLNINCENKGFTTVSLLQPPQYRIYQLFLNGNLLTRLYPNEFVNYSNAVTLHLGNNGLQEIRTGAFSGLKTLKRLHLNNNKLEILREDTFLGLESLEYLQADYNYISAIEAGAFSKLNKLKVLILNDNLLLSLPSNVFRFVLLTHLDLRGNRLKVMPFAGVLEHIGGIMEIQLEENPWNCTCDLLPLKAWLDTITVFVGEIVCETPFRLHGKDVTQLTRQDLCPRKSASDSSQRGSHADTHVQRLSPTMNPALNPTRAPKASRPPKMRNRPTPRVTVSKDRQSFGPIMVYQTKSPVPLTCPSSCVCTSQSSDNGLNVNCQERKFTNISDLQPKPTSPKKLYLTGNYLQTVYKNDLLEYSSLDLLHLGNNRIAVIQEGAFTNLTSLRRLYLNGNYLEVLYPSMFDGLQSLQYLYLEYNVIKEIKPLTFDALINLQLLFLNNNLLRSLPDNIFGGTALTRLNLRNNHFSHLPVKGVLDQLPAFIQIDLQENPWDCTCDIMGLKDWTEHANSPVIINEVTCESPAKHAGEILKFLGREAICPDSPNLSDGTVLSMNHNTDTPRSLSVSPSSYPELHTEVPLSVLILGLLVVFILSVCFGAGLFVFVLKRRKGVPSVPRNTNNLDVSSFQLQYGSYNTETHDKTDGHVYNYIPPPVGQMCQNPIYMQKEGDPVAYYRNLQEFSYSNLEEKKEEPATPAYTISATELLEKQATPREPELLYQNIAERVKELPSAGLVHYNFCTLPKRQFAPSYESRRQNQDRINKTVLYGTPRKCFVGQSKPNHPLLQAKPQSEPDYLEVLEKQTAISQL	binds
HA-tagged SLITRK2 V89M (pDisplay-SLITRK2 V89M) (receptor, UniProt Q9H156 22-845) RKTAKDICKIRCLCEEKENVLNINCENKGFTTVSLLQPPQYRIYQLFLNGNLLTRLYPNEFVNYSNAMTLHLGNNGLQEIRTGAFSGLKTLKRLHLNNNKLEILREDTFLGLESLEYLQADYNYISAIEAGAFSKLNKLKVLILNDNLLLSLPSNVFRFVLLTHLDLRGNRLKVMPFAGVLEHIGGIMEIQLEENPWNCTCDLLPLKAWLDTITVFVGEIVCETPFRLHGKDVTQLTRQDLCPRKSASDSSQRGSHADTHVQRLSPTMNPALNPTRAPKASRPPKMRNRPTPRVTVSKDRQSFGPIMVYQTKSPVPLTCPSSCVCTSQSSDNGLNVNCQERKFTNISDLQPKPTSPKKLYLTGNYLQTVYKNDLLEYSSLDLLHLGNNRIAVIQEGAFTNLTSLRRLYLNGNYLEVLYPSMFDGLQSLQYLYLEYNVIKEIKPLTFDALINLQLLFLNNNLLRSLPDNIFGGTALTRLNLRNNHFSHLPVKGVLDQLPAFIQIDLQENPWDCTCDIMGLKDWTEHANSPVIINEVTCESPAKHAGEILKFLGREAICPDSPNLSDGTVLSMNHNTDTPRSLSVSPSSYPELHTEVPLSVLILGLLVVFILSVCFGAGLFVFVLKRRKGVPSVPRNTNNLDVSSFQLQYGSYNTETHDKTDGHVYNYIPPPVGQMCQNPIYMQKEGDPVAYYRNLQEFSYSNLEEKKEEPATPAYTISATELLEKQATPREPELLYQNIAERVKELPSAGLVHYNFCTLPKRQFAPSYESRRQNQDRINKTVLYGTPRKCFVGQSKPNHPLLQAKPQSEPDYLEVLEKQTAISQL	binds
